No constants are given. Whether binding was seen depends on the method and setting. In cells and extracts the contact can be indirect. Some entries that bind do so weakly or less than the wild type.
Assays:
[1] = target: N-terminally Flag-tagged POLD1 H1066W (human) (UniProt P28340); assay: pull-down; Flag-pull down (Flag-M2 agarose) from lysate of Sf9 cells co-expressing Flag-POLD1 variant, POLD2, POLD3 and POLD4, without PCNA; 50 mM Tris-HCl pH 8.0, 200 mM NaCl, 0.25% NP-40, 4°C; SDS-PAGE with protein stain
[2] = target: N-terminally Flag-tagged POLD1 H1066Y (human) (UniProt P28340); assay: as above
[3] = target: N-terminally Flag-tagged POLD1 H1066W (human) (UniProt P28340); assay: pull-down; Flag-pull down (Flag-M2 agarose) from lysate of Sf9 cells co-expressing Flag-POLD1 variant, POLD2 and POLD3 (three-subunit Pol δ3, no POLD4), with or without PCNA; SDS-PAGE with protein stain
[4] = target: N-terminally Flag-tagged POLD1 H1066Y (human) (UniProt P28340); assay: as above
[5] = target: N-terminally Flag-tagged POLD1 H1066W (human) (UniProt P28340); assay: pull-down; Flag-pull down (Flag-M2 agarose) from lysate of Sf9 cells co-expressing Flag-POLD1 variant, POLD2, POLD3, POLD4 and untagged PCNA; 50 mM Tris-HCl pH 8.0, 200 mM NaCl, 0.25% NP-40, 4°C; SDS-PAGE with protein stain
[6] = target: N-terminally Flag-tagged POLD1 H1066Y (human) (UniProt P28340); assay: as above
[7] = target: N-terminally Flag-tagged POLD1 (catalytic subunit of human DNA polymerase delta), wild type (human) (UniProt P28340); assay: pull-down; Flag-pull down (Flag-M2 agarose) from lysate of Sf9 cells co-expressing Flag-POLD1 variant, POLD2, POLD3 and POLD4, without PCNA; 50 mM Tris-HCl pH 8.0, 200 mM NaCl, 0.25% NP-40, 4°C; SDS-PAGE with protein stain

By UniProt entry, the sequences of proteins in these tests, tags left out. Where a name states a change or a piece, a line headed by the entry shows the natural chain unless it says otherwise.
UniProt P28340: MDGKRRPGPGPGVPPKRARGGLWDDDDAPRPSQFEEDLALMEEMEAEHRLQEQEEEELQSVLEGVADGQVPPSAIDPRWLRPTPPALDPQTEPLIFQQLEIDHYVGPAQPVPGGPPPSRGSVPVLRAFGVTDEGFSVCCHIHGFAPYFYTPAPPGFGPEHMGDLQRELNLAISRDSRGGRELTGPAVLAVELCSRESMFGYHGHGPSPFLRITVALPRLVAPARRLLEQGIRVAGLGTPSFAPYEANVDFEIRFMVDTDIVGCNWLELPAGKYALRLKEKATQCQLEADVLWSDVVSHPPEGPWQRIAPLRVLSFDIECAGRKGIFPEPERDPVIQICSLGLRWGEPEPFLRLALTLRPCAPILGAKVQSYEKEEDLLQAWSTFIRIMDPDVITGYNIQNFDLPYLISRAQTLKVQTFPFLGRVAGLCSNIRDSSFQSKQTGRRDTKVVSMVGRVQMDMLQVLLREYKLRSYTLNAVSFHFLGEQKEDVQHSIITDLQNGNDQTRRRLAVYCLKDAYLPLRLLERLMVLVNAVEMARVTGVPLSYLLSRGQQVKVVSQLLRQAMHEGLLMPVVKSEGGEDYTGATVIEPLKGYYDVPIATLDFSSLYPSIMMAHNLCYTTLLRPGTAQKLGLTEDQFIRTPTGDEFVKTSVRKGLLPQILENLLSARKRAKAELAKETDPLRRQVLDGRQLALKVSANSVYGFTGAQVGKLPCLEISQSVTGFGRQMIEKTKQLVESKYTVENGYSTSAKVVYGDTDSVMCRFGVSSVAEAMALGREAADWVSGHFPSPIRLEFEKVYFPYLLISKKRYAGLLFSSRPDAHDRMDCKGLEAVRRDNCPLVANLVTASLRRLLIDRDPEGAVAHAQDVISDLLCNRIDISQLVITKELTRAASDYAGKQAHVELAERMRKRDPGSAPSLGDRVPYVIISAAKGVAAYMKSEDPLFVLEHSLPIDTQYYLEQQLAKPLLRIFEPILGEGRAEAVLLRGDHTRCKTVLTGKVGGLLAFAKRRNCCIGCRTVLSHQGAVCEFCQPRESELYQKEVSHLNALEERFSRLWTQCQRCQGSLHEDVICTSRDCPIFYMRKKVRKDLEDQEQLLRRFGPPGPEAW
UniProt P49005: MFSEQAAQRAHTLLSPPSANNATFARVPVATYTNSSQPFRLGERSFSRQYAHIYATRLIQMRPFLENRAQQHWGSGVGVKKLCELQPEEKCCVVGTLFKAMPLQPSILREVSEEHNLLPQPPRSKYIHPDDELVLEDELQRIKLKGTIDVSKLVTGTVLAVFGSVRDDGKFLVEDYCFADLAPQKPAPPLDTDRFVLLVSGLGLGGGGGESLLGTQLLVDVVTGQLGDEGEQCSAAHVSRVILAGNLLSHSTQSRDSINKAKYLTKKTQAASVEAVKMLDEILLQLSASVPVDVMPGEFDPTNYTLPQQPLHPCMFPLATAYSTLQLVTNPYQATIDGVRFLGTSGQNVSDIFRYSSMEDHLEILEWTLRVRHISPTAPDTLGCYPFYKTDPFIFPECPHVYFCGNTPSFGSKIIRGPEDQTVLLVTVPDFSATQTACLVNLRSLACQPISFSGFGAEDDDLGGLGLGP
UniProt P11038: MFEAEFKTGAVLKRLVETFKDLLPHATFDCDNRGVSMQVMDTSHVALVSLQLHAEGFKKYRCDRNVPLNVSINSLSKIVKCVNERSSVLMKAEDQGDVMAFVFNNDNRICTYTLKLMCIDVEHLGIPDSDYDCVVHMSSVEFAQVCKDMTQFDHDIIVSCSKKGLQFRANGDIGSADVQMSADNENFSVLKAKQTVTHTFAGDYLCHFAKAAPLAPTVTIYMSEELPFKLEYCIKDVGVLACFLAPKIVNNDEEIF

Measured: binding

POLD2 (accessory subunit of human DNA polymerase delta), untagged (from UniProt P49005 1-469)
not listed: [7]
binds: all other assays above

baculovirus PCNA (from UniProt P11038 1-256)
binds: [7]

Source: paper PMC6613617
